Experimental data: the M2OR odorant receptor database
The list shows a part of the results, in another mix than the full data. Calls are pooled over several reports, among them a noisy single-well screen. The list shows a part of the results.

Columns and labels:
Conditions in all cases: stereoisomer not certain
OR4S2 (Homo sapiens) = target: T1, OR4S2 (Homo sapiens) (UniProt Q8NH73)
T1 sequence (whole entry): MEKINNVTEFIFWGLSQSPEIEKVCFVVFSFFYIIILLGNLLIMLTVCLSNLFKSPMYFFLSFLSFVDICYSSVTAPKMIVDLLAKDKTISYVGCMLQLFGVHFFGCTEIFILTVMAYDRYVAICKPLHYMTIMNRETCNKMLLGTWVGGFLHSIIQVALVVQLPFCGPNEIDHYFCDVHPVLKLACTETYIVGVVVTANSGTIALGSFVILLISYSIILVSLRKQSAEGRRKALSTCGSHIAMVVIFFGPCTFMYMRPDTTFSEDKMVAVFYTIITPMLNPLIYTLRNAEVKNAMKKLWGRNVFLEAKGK
Summary of the method: (§1)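 Values were gathered from published papers (main text and supplementary material), with extra details requested from the original authors when needed, and checked for typos and inconsistencies. Each receptor–molecule pair is called responsive (active) if the original authors judged the measured signal statistically different from baseline, and non-responsive (inactive) otherwise. Assay methods varied by source, often transient mammalian cell-line luciferase assays. Recorded details include cell line, G-protein, co-transfected protein and tags.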

OR4X1 = system: T2, OR4X1
T2 sequence (whole entry): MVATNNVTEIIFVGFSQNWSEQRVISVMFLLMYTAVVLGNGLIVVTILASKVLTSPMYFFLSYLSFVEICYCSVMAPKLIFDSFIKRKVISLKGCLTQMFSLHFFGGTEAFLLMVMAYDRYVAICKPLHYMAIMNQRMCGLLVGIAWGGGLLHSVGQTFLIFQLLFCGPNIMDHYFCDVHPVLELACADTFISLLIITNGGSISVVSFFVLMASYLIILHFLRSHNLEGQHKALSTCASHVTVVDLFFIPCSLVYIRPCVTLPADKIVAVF
Summary of the method: as §1

OR4X2 (Homo sapiens) = target: T3, OR4X2 (Homo sapiens) (UniProt Q8NGF9)
T3 sequence (whole entry): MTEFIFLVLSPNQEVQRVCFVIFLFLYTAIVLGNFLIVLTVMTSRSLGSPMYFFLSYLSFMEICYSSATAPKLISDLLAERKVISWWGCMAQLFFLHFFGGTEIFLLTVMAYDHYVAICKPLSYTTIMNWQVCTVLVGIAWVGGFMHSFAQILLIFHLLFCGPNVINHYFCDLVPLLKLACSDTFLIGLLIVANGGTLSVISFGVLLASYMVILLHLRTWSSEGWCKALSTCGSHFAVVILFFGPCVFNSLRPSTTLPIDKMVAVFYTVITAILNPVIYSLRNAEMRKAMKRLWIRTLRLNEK
Summary of the method: as §1

OR51A2 (Homo sapiens) = target: T4, OR51A2 (Homo sapiens) (UniProt Q8NGJ7)
T4 sequence (whole entry): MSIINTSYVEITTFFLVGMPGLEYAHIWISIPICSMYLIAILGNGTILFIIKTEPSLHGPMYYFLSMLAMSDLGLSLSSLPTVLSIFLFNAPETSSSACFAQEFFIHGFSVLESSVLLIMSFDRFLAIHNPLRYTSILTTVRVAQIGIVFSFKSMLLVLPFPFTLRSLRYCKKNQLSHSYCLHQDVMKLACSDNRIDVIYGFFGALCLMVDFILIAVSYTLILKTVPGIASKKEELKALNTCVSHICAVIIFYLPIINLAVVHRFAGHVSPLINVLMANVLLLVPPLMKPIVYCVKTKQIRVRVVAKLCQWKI
Summary of the method: as §1

OR51B2 (Homo sapiens) = target: T5, OR51B2 (Homo sapiens) (UniProt Q9Y5P1)
T5 sequence (whole entry): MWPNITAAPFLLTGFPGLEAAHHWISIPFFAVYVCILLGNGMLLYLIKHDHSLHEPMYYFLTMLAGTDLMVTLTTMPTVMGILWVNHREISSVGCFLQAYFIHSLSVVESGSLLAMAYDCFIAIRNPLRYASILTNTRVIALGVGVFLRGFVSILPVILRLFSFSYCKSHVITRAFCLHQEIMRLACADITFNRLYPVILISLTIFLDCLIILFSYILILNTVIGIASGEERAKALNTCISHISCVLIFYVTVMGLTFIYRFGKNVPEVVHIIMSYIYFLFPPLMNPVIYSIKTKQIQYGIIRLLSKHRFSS
Summary of the method: as §1

OR51D1 (Homo sapiens) = target: T6, OR51D1 (Homo sapiens) (UniProt Q8NGF3)
T6 sequence (whole entry): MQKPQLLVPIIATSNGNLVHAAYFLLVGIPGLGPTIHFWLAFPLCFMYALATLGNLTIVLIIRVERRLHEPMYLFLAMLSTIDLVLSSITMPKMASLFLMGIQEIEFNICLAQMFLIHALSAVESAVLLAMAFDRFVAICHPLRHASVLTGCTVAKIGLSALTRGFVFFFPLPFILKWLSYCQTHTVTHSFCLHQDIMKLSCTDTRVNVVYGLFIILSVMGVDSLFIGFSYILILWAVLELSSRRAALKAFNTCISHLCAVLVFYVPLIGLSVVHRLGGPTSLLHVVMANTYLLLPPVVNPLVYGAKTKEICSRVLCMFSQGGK
Summary of the method: as §1

OR51E1 (Homo sapiens) [1] = target: T7, OR51E1 (Homo sapiens) (UniProt Q8TCB6)
T7 sequence (whole entry): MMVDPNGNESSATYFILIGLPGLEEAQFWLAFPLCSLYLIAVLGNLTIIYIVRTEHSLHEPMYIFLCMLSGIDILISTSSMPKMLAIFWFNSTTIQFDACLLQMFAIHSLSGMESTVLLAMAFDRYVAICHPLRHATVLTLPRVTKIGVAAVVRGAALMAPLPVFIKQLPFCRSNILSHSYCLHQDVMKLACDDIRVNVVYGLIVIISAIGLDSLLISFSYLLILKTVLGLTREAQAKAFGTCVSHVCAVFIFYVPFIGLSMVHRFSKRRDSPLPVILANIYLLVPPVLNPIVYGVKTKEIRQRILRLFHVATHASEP
Summary of the method: as §1

OR51E2 (Homo sapiens) = target: T8, OR51E2 (Homo sapiens) (UniProt Q9H255)
T8 sequence (whole entry): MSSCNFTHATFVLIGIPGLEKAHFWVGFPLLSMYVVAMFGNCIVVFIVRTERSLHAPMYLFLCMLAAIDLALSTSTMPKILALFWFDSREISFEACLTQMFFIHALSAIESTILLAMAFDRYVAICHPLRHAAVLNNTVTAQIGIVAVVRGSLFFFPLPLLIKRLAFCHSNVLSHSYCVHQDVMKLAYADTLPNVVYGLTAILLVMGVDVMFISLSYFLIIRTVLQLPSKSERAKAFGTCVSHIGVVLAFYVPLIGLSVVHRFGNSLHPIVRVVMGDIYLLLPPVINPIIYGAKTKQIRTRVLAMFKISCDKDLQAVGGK
Summary of the method: as §1

OR51G1 (Homo sapiens) = target: T9, OR51G1 (Homo sapiens) (UniProt Q8NGK1)
T9 sequence (whole entry): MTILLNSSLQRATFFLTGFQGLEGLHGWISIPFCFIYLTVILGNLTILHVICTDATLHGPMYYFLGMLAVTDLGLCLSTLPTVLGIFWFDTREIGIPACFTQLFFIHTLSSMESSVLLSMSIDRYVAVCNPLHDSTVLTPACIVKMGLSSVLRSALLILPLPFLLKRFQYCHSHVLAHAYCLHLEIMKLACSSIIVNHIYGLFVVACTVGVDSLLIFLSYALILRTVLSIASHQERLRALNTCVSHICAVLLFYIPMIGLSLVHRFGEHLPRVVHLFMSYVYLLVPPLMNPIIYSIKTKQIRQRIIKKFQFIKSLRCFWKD
Summary of the method: as §1

OR51H1 (Homo sapiens) = target: T10, OR51H1 (Homo sapiens) (UniProt Q8NH63)
T10 sequence (whole entry): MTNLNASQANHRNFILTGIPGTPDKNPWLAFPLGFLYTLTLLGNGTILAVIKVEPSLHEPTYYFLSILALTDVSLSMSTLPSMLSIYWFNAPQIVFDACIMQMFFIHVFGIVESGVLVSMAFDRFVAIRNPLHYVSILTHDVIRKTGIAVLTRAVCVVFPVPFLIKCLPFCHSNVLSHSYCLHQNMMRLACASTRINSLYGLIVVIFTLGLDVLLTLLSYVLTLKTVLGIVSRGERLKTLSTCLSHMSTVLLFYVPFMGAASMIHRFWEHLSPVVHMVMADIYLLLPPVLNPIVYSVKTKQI
Summary of the method: as §1

OR51B5 (Homo sapiens) = target: T11, OR51B5 (Homo sapiens) (UniProt Q9H339)
T11 sequence (whole entry): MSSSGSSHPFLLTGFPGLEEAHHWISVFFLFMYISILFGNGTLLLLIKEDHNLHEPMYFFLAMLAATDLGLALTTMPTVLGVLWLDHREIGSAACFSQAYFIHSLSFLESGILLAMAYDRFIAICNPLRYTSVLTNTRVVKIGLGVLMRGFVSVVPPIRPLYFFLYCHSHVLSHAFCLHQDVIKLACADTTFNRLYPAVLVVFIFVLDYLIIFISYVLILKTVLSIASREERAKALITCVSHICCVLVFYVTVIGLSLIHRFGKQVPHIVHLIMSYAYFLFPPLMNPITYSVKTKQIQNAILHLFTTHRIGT
Summary of the method: as §1

OR51E1 (Homo sapiens) [2] = target: T12, OR51E1 (Homo sapiens) (UniProt Q8TCB6); remark: listed apart in the source
T12 sequence (whole entry): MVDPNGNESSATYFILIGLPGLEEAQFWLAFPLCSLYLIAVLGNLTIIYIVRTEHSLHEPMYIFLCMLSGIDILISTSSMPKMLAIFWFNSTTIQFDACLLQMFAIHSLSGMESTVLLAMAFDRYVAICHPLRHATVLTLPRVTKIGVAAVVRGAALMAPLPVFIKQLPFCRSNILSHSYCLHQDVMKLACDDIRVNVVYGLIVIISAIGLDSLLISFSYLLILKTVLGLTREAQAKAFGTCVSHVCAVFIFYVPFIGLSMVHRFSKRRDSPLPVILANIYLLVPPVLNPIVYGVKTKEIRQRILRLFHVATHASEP
Summary of the method: as §1

SMILES	odorant receptor agonist call (OR4S2 (Homo sapiens))	odorant receptor agonist call (OR4X1)	odorant receptor agonist call (OR4X2 (Homo sapiens))	odorant receptor agonist call (OR51A2 (Homo sapiens))	odorant receptor agonist call (OR51B2 (Homo sapiens))	odorant receptor agonist call (OR51D1 (Homo sapiens))	odorant receptor agonist call (OR51E1 (Homo sapiens) [1])	odorant receptor agonist call (OR51E2 (Homo sapiens))	odorant receptor agonist call (OR51G1 (Homo sapiens))	odorant receptor agonist call (OR51H1 (Homo sapiens))	odorant receptor agonist call (OR51B5 (Homo sapiens))	odorant receptor agonist call (OR51E1 (Homo sapiens) [2])
COc1ccccc1O	inactive	inactive	inactive	inactive	inactive	inactive	inactive	inactive	inactive	inactive		
CC12C=CCC1C1CCC3=CC(=O)CCC3(C)C1CC2 (stereo not given)	inactive	inactive	inactive	inactive	inactive	inactive	inactive	inactive	inactive	inactive		
CC(C)CC(=O)O	inactive	inactive	inactive	inactive	inactive	inactive	active	inactive	inactive	inactive		
CC=Cc1ccc(O)c(OC)c1	active	inactive	inactive	active	active	inactive	inactive	inactive	inactive	inactive		
C=CCc1ccc(O)c(OC)c1											inactive	
CC(C)(C)c1ccc(CCC=O)cc1	inactive	inactive	inactive	inactive	inactive	inactive	inactive	inactive	inactive	inactive		
CCCCCCCC=CC=O	inactive	inactive	inactive	inactive	inactive	inactive	inactive	inactive	inactive	inactive		
O=C1CCCCC1	inactive	inactive	inactive			inactive	inactive	inactive	inactive	inactive		inactive
